According to PMC8261665:
These are yes or no findings as the source states them, for the method shown. In cells and extracts the contact can be indirect. Some results given as binding are weak or reduced against the parent protein; the word gives no strength.

The chains behind the UniProt entries cited, without tags or fusion partners. Residues count along the entry.
UniProt O15260: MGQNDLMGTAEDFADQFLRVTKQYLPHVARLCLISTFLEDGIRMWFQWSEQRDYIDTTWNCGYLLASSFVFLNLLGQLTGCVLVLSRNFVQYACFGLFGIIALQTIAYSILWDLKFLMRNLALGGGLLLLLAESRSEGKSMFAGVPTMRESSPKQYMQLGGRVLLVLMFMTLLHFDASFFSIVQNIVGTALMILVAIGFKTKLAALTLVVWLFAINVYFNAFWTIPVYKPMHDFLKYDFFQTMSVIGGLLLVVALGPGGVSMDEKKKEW
UniProt P04114, residues 28-4563: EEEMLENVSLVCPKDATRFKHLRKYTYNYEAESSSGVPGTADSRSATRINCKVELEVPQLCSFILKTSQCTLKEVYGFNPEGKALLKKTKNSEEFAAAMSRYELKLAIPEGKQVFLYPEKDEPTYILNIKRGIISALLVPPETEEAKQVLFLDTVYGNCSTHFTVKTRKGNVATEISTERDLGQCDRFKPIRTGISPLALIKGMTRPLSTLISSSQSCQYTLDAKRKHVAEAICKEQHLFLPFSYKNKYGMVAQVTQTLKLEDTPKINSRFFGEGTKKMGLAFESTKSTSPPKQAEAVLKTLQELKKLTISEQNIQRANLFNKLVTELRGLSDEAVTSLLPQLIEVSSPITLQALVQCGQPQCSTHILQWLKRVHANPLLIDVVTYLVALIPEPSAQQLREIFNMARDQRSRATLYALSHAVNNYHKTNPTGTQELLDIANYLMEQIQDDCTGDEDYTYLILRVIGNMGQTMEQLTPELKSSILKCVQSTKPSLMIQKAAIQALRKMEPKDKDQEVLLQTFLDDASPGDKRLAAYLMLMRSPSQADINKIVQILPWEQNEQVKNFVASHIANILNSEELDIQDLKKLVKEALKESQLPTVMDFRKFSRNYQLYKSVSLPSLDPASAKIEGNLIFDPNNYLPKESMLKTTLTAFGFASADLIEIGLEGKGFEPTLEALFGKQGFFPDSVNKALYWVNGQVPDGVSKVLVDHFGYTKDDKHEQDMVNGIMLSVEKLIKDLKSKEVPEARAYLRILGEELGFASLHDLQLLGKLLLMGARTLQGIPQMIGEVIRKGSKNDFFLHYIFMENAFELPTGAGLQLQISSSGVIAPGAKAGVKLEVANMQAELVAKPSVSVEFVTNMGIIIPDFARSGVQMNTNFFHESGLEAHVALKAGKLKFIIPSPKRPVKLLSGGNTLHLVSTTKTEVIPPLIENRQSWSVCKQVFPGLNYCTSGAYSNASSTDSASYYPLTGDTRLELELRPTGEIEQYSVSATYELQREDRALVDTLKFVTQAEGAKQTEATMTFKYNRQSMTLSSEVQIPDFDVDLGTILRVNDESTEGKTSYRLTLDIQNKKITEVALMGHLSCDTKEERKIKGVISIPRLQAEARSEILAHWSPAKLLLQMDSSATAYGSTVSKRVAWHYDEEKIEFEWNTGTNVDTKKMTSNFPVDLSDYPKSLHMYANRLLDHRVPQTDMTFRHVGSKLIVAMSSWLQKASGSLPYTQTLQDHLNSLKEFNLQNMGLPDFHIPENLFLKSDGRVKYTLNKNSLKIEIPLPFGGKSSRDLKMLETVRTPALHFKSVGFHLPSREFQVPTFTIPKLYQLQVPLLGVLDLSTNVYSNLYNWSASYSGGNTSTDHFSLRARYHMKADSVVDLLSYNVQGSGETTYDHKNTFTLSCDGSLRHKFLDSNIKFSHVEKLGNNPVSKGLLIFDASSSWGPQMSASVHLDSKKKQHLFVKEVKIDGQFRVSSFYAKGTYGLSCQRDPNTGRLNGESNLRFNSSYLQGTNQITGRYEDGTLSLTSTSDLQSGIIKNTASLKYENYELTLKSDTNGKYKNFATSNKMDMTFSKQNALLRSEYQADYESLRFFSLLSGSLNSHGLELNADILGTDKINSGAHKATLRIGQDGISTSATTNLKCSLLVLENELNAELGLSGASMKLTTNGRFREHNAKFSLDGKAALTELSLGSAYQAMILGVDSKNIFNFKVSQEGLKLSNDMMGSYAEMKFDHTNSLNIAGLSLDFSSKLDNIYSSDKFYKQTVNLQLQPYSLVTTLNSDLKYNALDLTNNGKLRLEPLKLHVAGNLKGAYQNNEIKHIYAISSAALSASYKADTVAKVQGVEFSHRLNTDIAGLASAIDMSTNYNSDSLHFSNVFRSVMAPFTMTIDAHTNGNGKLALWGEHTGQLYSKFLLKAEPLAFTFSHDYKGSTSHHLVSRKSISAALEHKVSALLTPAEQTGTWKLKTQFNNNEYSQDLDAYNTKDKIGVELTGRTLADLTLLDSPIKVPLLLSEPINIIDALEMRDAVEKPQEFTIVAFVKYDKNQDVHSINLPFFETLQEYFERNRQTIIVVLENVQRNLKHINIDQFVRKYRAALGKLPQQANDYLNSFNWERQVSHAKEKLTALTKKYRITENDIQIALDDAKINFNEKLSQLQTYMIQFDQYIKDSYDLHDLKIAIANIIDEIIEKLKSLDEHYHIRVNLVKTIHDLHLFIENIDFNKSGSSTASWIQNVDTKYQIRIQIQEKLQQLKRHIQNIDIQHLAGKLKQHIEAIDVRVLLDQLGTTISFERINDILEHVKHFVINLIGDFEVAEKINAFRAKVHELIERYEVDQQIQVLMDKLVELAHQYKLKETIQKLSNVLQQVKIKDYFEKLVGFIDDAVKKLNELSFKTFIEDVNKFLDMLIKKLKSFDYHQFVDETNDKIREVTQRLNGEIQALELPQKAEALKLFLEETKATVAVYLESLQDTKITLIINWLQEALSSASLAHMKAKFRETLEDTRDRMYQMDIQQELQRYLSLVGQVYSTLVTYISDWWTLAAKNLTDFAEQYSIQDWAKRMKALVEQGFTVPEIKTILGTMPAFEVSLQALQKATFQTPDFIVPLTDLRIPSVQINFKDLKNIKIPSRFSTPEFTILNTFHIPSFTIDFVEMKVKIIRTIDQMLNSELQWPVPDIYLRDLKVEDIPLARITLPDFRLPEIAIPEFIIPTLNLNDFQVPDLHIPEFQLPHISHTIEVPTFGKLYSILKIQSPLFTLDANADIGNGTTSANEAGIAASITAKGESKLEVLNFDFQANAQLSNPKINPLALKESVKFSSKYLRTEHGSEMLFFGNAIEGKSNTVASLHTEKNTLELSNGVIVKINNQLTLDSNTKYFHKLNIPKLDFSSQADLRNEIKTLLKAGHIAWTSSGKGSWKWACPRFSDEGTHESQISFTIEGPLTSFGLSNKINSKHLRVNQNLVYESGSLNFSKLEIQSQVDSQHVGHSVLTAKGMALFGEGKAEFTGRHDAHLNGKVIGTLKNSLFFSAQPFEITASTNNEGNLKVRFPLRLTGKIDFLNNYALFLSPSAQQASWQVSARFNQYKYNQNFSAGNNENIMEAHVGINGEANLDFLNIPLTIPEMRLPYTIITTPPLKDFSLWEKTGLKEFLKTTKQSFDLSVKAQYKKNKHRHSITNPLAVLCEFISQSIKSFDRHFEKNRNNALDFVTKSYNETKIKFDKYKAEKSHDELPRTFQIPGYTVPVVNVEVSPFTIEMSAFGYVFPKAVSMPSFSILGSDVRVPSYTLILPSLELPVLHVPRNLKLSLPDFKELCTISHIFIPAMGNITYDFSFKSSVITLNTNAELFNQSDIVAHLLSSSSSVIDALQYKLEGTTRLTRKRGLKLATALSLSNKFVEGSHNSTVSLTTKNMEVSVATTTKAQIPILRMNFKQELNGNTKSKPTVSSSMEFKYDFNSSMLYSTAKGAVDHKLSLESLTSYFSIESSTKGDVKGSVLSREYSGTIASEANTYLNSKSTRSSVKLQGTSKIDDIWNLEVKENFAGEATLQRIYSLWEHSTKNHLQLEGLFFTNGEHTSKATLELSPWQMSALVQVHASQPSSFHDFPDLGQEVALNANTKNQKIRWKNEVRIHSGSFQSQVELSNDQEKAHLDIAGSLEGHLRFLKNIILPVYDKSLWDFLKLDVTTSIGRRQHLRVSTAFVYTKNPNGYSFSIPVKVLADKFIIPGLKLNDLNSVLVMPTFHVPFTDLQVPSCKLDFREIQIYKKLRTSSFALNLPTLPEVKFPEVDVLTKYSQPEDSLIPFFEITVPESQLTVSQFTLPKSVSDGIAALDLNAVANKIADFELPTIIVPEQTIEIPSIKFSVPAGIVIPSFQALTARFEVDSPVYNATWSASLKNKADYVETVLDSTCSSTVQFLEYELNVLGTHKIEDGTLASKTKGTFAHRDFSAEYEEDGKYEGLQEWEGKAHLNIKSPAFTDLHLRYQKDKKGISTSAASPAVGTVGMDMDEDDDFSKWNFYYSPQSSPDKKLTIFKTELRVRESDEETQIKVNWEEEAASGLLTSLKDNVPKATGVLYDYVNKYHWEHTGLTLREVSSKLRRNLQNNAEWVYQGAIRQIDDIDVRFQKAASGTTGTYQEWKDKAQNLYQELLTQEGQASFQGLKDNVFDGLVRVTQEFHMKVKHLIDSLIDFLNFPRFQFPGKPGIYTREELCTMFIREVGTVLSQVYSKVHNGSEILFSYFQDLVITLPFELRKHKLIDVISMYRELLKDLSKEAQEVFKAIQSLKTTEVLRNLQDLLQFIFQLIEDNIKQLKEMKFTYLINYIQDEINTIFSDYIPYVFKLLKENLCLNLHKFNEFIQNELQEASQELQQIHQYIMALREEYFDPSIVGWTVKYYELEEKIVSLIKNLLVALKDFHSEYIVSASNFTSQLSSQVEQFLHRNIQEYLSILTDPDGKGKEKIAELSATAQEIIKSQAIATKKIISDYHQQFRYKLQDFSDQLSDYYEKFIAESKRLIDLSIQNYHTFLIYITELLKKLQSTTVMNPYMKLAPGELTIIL

Biological target: Surfeit 4 (Surf4) (human (endogenous in Huh7 and HepG2)) (UniProt O15260)
Experiment: co-IP; whole cell lysate of Huh7 or HepG2 cells in lysis buffer A (1% Triton, 150 mM NaCl, 50 mM Hepes, pH 7.4) with rabbit anti-Surf4 antibody 1195Sa or preimmune serum and protein G beads; washed three times with lysis buffer A; Western blot

binding: binds
Substance: apolipoprotein B100 (apoB100) (from UniProt P04114 28-4563)
